Laboratory results from publication PMC10589262.
Where two headings read alike, the source gives them in different places. No constants are given. Whether binding was seen depends on the method and setting. In cells and extracts the contact can be indirect. Some entries that bind do so weakly or less than the wild type.

Sequences of proteins named here, by UniProt entry; tags and fusion partners are left off. A change or cut given only in a name is not applied to a line headed by its entry. A line that says so, or that is headed by a name, gives the form on record, which may keep a tag or linker.
Mutant KIT (MT-KIT) of GIST882 cells (homozygous exon 13 K642E point mutation) (human (endogenous in GIST882)) (P10721, form named): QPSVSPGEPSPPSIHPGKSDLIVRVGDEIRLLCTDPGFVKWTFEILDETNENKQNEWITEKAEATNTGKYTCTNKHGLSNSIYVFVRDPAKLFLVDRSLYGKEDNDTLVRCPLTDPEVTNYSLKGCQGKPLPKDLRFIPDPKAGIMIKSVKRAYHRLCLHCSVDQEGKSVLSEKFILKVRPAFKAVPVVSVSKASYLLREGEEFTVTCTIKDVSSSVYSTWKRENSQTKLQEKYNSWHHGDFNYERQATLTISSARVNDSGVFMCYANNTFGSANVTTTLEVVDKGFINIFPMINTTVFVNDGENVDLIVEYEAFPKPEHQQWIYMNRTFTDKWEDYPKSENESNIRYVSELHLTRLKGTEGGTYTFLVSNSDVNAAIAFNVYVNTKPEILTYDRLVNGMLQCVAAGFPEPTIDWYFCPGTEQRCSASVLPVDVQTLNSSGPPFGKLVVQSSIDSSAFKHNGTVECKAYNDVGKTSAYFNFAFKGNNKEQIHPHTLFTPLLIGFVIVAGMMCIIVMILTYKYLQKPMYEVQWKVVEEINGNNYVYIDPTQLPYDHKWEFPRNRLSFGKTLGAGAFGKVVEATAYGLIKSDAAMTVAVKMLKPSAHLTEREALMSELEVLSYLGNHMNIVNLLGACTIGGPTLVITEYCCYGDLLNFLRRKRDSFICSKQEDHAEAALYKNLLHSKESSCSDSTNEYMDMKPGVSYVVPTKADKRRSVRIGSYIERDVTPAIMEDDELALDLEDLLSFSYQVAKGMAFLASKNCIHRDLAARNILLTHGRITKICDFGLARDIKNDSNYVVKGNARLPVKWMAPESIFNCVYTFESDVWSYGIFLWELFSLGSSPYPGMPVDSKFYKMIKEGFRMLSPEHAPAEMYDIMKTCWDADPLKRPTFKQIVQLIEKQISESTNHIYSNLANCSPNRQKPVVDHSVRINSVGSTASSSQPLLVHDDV
UniProt P62993: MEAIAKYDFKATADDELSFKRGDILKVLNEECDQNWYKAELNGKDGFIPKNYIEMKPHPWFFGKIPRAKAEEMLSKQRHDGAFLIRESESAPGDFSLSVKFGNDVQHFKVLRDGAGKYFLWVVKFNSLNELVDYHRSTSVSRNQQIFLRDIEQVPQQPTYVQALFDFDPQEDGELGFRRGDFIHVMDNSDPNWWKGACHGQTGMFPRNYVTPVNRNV

B1: Basic leucine zipper nuclear factor 1 (BLZF1) (protein, UniProt Q9H2G9 1-400)
chain: MTTKNLETKVTVTSSPIRGAGDGMETEEPPKSVEVTSGVQSRKHHSLQSPWKKAVPSESPGVLQLGKMLTEKAMEVKAVRILVPKAAITHDIPNKNTKVKSLGHHKGEFLGQSEGVIEPNKELSEVKNVLEKLKNSERRLLQDKEGLSNQLRVQTEVNRELKKLLVASVGDDLQYHFERLAREKNQLILENEALGRNTAQLSEQLERMSIQCDVWRSKFLASRVMADELTNSRAALQRQNRDAHGAIQDLLSEREQFRQEMIATQKLLEELLVSLQWGREQTYSPSVQPHSTAELALTNHKLAKAVNSHLLGNVGINNQKKIPSTVEFCSTPAEKMAETVLRILDPVTCKESSPDNPFFESSPTTLLATKKNIGRFHPYTRYENITFNCCNHCRGELIAL

What was measured:
[1] = target: Mutant KIT (MT-KIT) of GIST882 cells (homozygous exon 13 K642E point mutation) (human (endogenous in GIST882)) (UniProt P10721); experiment: co-IP; 500 µg of GIST cell lysate mixed with a KIT antibody (Cell Signaling Technology) or control IgG and protein A/G PLUS-Agarose, 4 °C overnight; washed, eluted by boiling; western blot of endogenous partners
[2] = target: Mutant KIT (MT-KIT) of GIST882 cells (homozygous exon 13 K642E point mutation) (human (endogenous in GIST882)) (UniProt P10721); experiment: as above; remark: listed apart in the source

Molecule	binding [1]	binding [2]
GRB2 (from UniProt P62993 1-217)	binds	–
B1	–	binds
